In patent publication US9034916B2, “Pharmaceutical composition for the prevention or treatment of a neurodegenerative disease, comprising a Daphne genkwa extract or a compound isolated therefrom” (Korea Research Institute of Bioscience and Biotechnology, priority 2011, dated 2015):
Some results were stated once for a whole list of compounds, not compound by compound.

Amino acid sequences for entries named in this document (tags omitted). Residues count along the entry.
UniProt P43354, 360-595 limits assumed: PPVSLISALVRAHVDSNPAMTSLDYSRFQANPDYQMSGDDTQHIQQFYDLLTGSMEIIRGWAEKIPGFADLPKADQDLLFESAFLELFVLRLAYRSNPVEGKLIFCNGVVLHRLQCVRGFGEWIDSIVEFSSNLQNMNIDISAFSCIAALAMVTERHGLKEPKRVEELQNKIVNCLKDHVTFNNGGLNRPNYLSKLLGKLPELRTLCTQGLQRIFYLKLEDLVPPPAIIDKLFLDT

Molecular target: T1, Nurr1 protein (Homo sapiens, UniProt P43354)
T1 construct: three kinds of plasmid DNAs, including a DNA comprising Nurr1-LBD and a DNA having β-galactosidase, were transfected into BE(2)C cells; expressed in transfected cells; host or cells: BE(2)C human neuroblastoma cells
Assay: Nurr1 luciferase reporter assay in BE(2)C cells transfected with Nurr1-LBD
Format: cell-based
Details: 0.3 ppm
Experimental: A gene comprising eight repeats of a nucleotide sequence (5′-CTCGGAGGACAGTACTCCG-3, SEQ ID NO: 1) to which GLA4 gene can bind was linked to the reporter gene luciferase to synthesize a vector. Then, three kinds of plasmid DNAs, including a DNA comprising Nurr1-LBD and a DNA having β-galactosidase, were transfected into BE(2)C cells, and after 6 hours, the cells were treated with 1-200 ppm of the Daphne genkwa extract. The treated cells were incubated in a 5% CO2 incubator at 37° C. for 20 hours, and then subjected to a luciferase assay (FIG. 1).
FIG. 1 is a graphic diagram showing the results of a luciferase assay conducted to examine the change in Nurr1 protein activity as a function of the concentration of the Daphne genkwa extract. As a control, 0.1% DMSO was used, and the increase in activity was expressed as folds of the activity of the control. […]
The effects of the Daphne genkwa extract fractions, obtained using various solvents in Example 2, on Nurr1 protein activity, were analyzed according to a method similar to the method described in Example 3. […]
According to a method similar to the method described in Example 3, the concentration dependences of the effects of genkwanine N and yuanhuacine on the activity of Nurr1 protein were analyzed, and the results of the analysis are shown in FIG. 5.

C=C(C)[C@]12C[C@@H](C)[C@@]34OC(c5ccccc5)(O[C@@H]1[C@@H]3[C@@H]1O[C@]1(CO)[C@@H](O)[C@@]1(O)[C@H]4C[C@H](C)[C@@H]1OC(=O)c1ccccc1)O2 [genkwanine N]
Nurr1 protein activity: higher than 300%

C=C(C)[C@@]12OC3(/C=C/C=C/CCCCC)O[C@@H]1[C@@H]1[C@@H]4O[C@]4(CO)[C@@H](O)[C@]4(O)C(=O)C(C)=C[C@H]4[C@@]1(O3)[C@H](C)[C@H]2OC(=O)c1ccccc1 [yuanhuacine]
Nurr1 protein activity: higher than 300%
